This data set can be described thus: general procedure: Fmoc solid-phase peptide synthesis; MBHA resin (substitution about 0.6 mmol/g); DIC/HOBt. To be noted: whole synthesis, acetate; for crude purity (method not given) / final HPLC purity: HPLC (analysing the liquid phase); for crude purity (method not given) / final HPLC purity / isolated yield: scale of the general procedure 0.05 mol; for isolated yield: total yield.

Turning to “Ac-D-Nal-D-Cpa-D-Pal-Ser-Aph(Hor)-D-Aph(Cbm)-Leu-Lys(iPr)-Pro-D-Ala-NH2”, for the setting “run 1”, the “crude purity (method not given)” value stood at 86.7%, the “final HPLC purity” value came to 99.5%, the isolated mass is reported as 49.3 g and the isolated yield is recorded as 60.4%. Also, where the note is “run 2”, the “crude purity (method not given)” value is on record as 84.0%, the “final HPLC purity” value is given as 99.7%, the isolated mass is listed as 47.5 g and the isolated yield was determined as 58.2%.
